Results deposited as PubChem BioAssay AID1159584 (Peter MacCallum Cancer Centre, 2016).
The whole screen tested about 18,000 reagents; this is a random part of them. Further read-outs or replicates are left out here. Not given: the amount of reagent, the time to read-out.

Screen: 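Genes that CDH1-null MCF10A cells selectively depend on to survive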 (primary screen)
Cells: human MCF10A breast epithelial cells, parental and CDH1-null
Reagents: siRNA against human genes
Detection: 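ATP luminescence (CellTiter-Glo) viability per line relative to mean mock wells over all plates, and the ratio of CDH1-null to parental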
Direction: CDH1-null / parental viability ratio: higher = CDH1-null cells survive relatively better than parental

gene | PubChem SID | CDH1-null / parental viability ratio
CLEC2L | SID135625229 | 1.01
BRSK2 | SID152155603 | 1.05
OR4C15 | SID135625124 | 1.08
PRODH2 | SID152148998 | 1.06
HNRNPK | SID134316013 | 1
DEPDC5 | SID135624040 | 1.23
SULT4A1 | SID152155260 | 0.98
FXR2 | SID152154676 | 1.12
TSPAN17 | SID152148844 | 1.23
DUX1 | SID135623881 | 1.18
EFEMP1 | SID152153244 | 0.95
POLL | SID134313603 | 0.94
TCP1 | SID135622390 | 1.29
ZNF610 | SID134322369 | 1.09
API5 | SID134310414 | 1.1
SLC12A1 | SID152147564 | 1.11
ODAD4 | SID152156455 | 0.88
DYRK4 | SID56478859 | 0.88
TADA2A | SID152155761 | 1.02
ZNF703 | SID135622766 | 1.04
PODXL | SID152150479 | 1.02
OR12D3 | SID135621841 | 1.07
PIBF1 | SID152156314 | 1.06
TANGO2 | SID152155878 | 0.64
TFAP2A | SID135621184 | 1.19
CSMD3 | SID134312807 | 0.79
OR6C65 | SID134329950 | 1.17
H1-4 | SID134316346 | 0.86
RPAP1 | SID134321268 | 1.17
OR4K5 | SID134329926 | 1.16
TMEM88 | SID134329409 | 0.74
CRTC1 | SID152149196 | 0.95
ZNF16 | SID134317026 | 1.63
MRRF | SID134320533 | 1.05
ORMDL2 | SID135623262 | 1.16
FTHL17 | SID134317729 | 1.42
SHROOM4 | SID135624471 | 1
LGALS14 | SID135624140 | 1.27
RMND1 | SID152149917 | 0.57
C1QB | SID135622032 | 1.23
MDH1B | SID152148843 | 0.62
GDF9 | SID152151560 | 0.85
RDH16 | SID152155540 | 1.09
GSTCD | SID135622743 | 0.84
CCDC38 | SID134322491 | 0.9
SOX12 | SID134321220 | 0.96
GPRIN2 | SID135625104 | 0.8
HR | SID152149964 | 1
OR9I1 | SID152149159 | 1.05
FAIM2 | SID135623316 | 1.14
MNX1 | SID152154865 | 1.54
C19orf53 | SID152154098 | 0.83
SERPINH1 | SID134315584 | 1.09
OR5I1 | SID135621646 | 1.15
CYP27C1 | SID152153455 | 0.6
ZNF672 | SID134312193 | 1
COMMD1 | SID152155532 | 1.41
RCE1 | SID135621123 | 1.07
IL12B | SID134312865 | 1.16
TMEM151A | SID134319792 | 1
RAB40AL | SID135625716 | 0.99
AFF3 | SID152150999 | 1.22
RPN1 | SID152150303 | 0.98
TRIM36 | SID135621296 | 0.88
ZNF573 | SID134320605 | 1.17
CLASP2 | SID152155948 | 0.93
MOCS2 | SID134322924 | 0.87
CETP | SID134314220 | 1.13
B3GNT7 | SID134319861 | 1.03
SMIM7 | SID152147594 | 0.97
NDUFA7 | SID152154729 | 0.96
CLGN | SID134316147 | 0.87
OR10A2 | SID135624608 | 1
ARC | SID152149582 | 0.96
NBPF10 | SID135625326 | 1.32
DUSP7 | SID135620703 | 1.34
IFI16 | SID152151045 | 1.02
LOXL2 | SID152148659 | 0.92
FIS1 | SID135624080 | 0.91
CEP89 | SID135624176 | 0.66
SCN2A | SID152148261 | 1.03
KRTAP19-6 | SID135623553 | 0.95
IL6R | SID134312928 | 1.01
SPANXN4 | SID135625348 | 1.04
HOXD3 | SID134321285 | 1.1
CNIH4 | SID135624043 | 0.97
RB1 | SID135620657 | 0.91

Quoted from the entries so far, 10 entries:
gene | PubChem SID | CDH1-null / parental viability ratio
TMEM151A | SID134319792 | 1
RAB40AL | SID135625716 | 0.99
AFF3 | SID152150999 | 1.22
RPN1 | SID152150303 | 0.98
TRIM36 | SID135621296 | 0.88
ZNF573 | SID134320605 | 1.17
CLASP2 | SID152155948 | 0.93
MOCS2 | SID134322924 | 0.87
CETP | SID134314220 | 1.13
B3GNT7 | SID134319861 | 1.03
